## Assay results

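Control-channel Italica luciferase signal in doxycycline-induced 293T-iDUX4 cells, given as percent activity after a 24-hour treatment. The test concentration is not given here. Percent change in the Italica control signal; more negative values mean stronger inhibition, which points to nonspecific, tet-on or cytotoxic effects.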

Values are in %. Common to all entries: measured here: Italica tet-on control reporter. This is a side read-out of the assay, for part of the compounds, not drawn at random.

compound	activity change (%)
COc1ccccc1S(=O)(=O)N1CC[C@H]2[C@H](CO)Nc3ccc(-c4ccc(F)cc4)cc3[C@H]21	-50.93
O=C(NC1CCCC1)N1CCCCN2[C@H](CO)[C@H](c3ccc(-c4ccccc4)cc3)[C@H]2C1	-13.74
C[C@@H]1CN([C@H](C)CO)C(=O)c2ccccc2-c2ccccc2CO[C@@H]1CN(C)S(=O)(=O)c1ccc(Cl)cc1	-19.52
N#Cc1cccc(-c2ccc3c(c2)[C@H]2[C@H](CCN2S(=O)(=O)c2ccccc2)[C@H](CO)N3)c1	-46.16
N#C[C@@H]1[C@H](c2ccccc2C2=CCCCC2)[C@H](CO)N1C(=O)NC1CCCC1	-5.239
COC(=O)[C@H]1[C@H](CO)[C@H]2Cn3c(ccc(C4=CCCC4)c3=O)[C@@H]1N2C(=O)CC1CC1	8.628
O=C1CN(S(=O)(=O)c2ccccc2)C[C@@H]2[C@@H](c3ccc(C#CCc4ccccc4)cc3)[C@H](CO)N12	-7.913
C[C@H](CO)N1C[C@H](C)[C@@H](CN(C)Cc2cccc(C(=O)Nc3ccccc3N)c2)OCc2ccccc2-c2c(n(C)c3ccccc23)C1=O	-38.08
CN1C(=O)c2cc(NC(=O)c3ccc(Cl)cc3)ccc2OC[C@@H]2O[C@@H](CC(=O)NCc3cccc(F)c3)CC[C@@H]21	-17.22
CCS(=O)(=O)N1CC2(C1)[C@H](c1ccccc1)[C@H](CO)N2CC1CCCC1	-7.308
C[C@H](CO)N1C[C@H](C)[C@H](CN(C)S(=O)(=O)c2ccc(C(F)(F)F)cc2)OCc2ccccc2-c2ccccc2C1=O	-19.11
COc1ccc(C#Cc2ccc3c(c2)[C@H]2[C@H](CCN2Cc2ccncc2)[C@@H](CO)N3)cc1	0.6972
CCC(=O)N1CC2(CCN(Cc3ccccc3Cl)CC2)c2c([nH]c3cc(OC)ccc23)[C@H]1CO	-12.22
COc1ccc2c3c([nH]c2c1)[C@@H](CO)N(Cc1ccccc1F)CC31CN(CC2CC2)C1	-73.31
CS(=O)(=O)Nc1ccc2c(c1)[C@@H]1C[C@H](CC(=O)NCc3ccc(Oc4ccccc4)cc3)O[C@@H](CO)[C@@H]1O2	-48.21
COCC(=O)N1CCCCN2[C@H](C1)[C@@H](c1ccc(C#Cc3ccccc3)cc1)[C@@H]2CO	-5.426
N#C[C@@H]1[C@H](c2ccccc2C2=CCCCC2)[C@H](CO)N1S(=O)(=O)c1ccccc1	-10.66
COc1ccc2c3c([nH]c2c1)[C@@H](CO)N(Cc1ccccc1)CC31CN(C(=O)Nc2cccc(F)c2)C1	-4.979
COc1ccccc1CN1CC[C@H]2[C@H](CO)Nc3ccc(-c4cccc(F)c4)cc3[C@H]21	-26.93
COc1cccc(C#Cc2ccc([C@H]3[C@H](CO)N4C(=O)CN(C(=O)Cc5ccccc5)C[C@@H]34)cc2)c1	-14.76
COc1ccc2c3c([nH]c2c1)[C@@H](CO)N(Cc1ccccc1OC)CC31CN(C(C)=O)C1	-60.48
CC(C)CC#Cc1ccc([C@@H]2[C@@H](CO)N3C(=O)CN(S(C)(=O)=O)C[C@@H]23)cc1	-5.078
O=C(Nc1cccc(F)c1)N1CCCCN2[C@H](CO)[C@H](c3ccc(C#Cc4cccnc4)cc3)[C@@H]2C1	-32.26
CN1c2ccc(-c3cccc(C#N)c3)cc2[C@@H]2[C@@H](CCN2C(=O)Nc2cc(F)ccc2F)[C@@H]1CO	-43.42
COc1ccc2c3c(n(C)c2c1)[C@H](CO)N(C(=O)Nc1ccc(F)cc1)CC31CCN(C(=O)CC2CC2)CC1	-7.165
COc1ccc2c3c(n(C)c2c1)[C@H](CO)NCC31CCN(Cc2ccc(Cl)cc2)CC1	-36.11
CN1c2ccc(-c3ccccc3)cc2[C@H]2[C@H](CCN2C(=O)c2ccc3c(c2)OCO3)[C@H]1CO	-3.152
COc1ccccc1S(=O)(=O)N1CC[C@@H]2[C@H](CO)N(C)c3ccc(C#Cc4cccc(F)c4)cc3[C@@H]21	-10.29
O=C(Nc1ccccc1F)N1CC(=O)N2[C@@H](CO)[C@H](c3ccc(C#CC4CC4)cc3)[C@@H]2C1	-3.52
N#C[C@H]1[C@@H](c2ccccc2C2=CCCCC2)[C@@H](CO)N1C(=O)c1cccc(F)c1	0.1401
O=S(=O)(c1ccc(F)cc1)N1CCCCN2[C@H](CO)[C@H](c3ccc(C4=CCCCC4)cc3)[C@H]2C1	1.491
COc1cccc(S(=O)(=O)Nc2ccc3c(c2)[C@H]2C[C@H](CC(=O)NCCc4ccccc4)O[C@H](CO)[C@H]2O3)c1	-12.49
COc1ccc(NC(=O)N2CCCCN3[C@H](C2)[C@@H](c2ccc(C#Cc4ccccn4)cc2)[C@@H]3CO)cc1	-11.37
N#Cc1cccc(-c2ccc([C@@H]3[C@H](CO)N4CCCCN(C(=O)Nc5cccc(F)c5)C[C@@H]34)cc2)c1	-97.23
COc1ccc(S(=O)(=O)N[C@@H]2C=C[C@H](CC(=O)N3CCC(Cc4ccccc4)CC3)O[C@@H]2CO)cc1	-1.434
CC(C)NC(=O)N1[C@H](CO)[C@@H](c2ccccc2)C12CN(Cc1ccccc1)C2	-4.428
O=C(c1cccc(F)c1)N1CCCCN2[C@H](CO)[C@H](c3ccc(C#CC4(O)CCCC4)cc3)[C@H]2C1	-23.7
COc1ccccc1NC(=O)N1CC(=O)N2[C@@H](CO)[C@H](c3ccc(C#CCC(C)C)cc3)[C@@H]2C1	-18.62
Cc1cccc(S(=O)(=O)N2C[C@@H]3N[C@H](C2)C3c2ccc(-c3cccnc3)cc2)c1 (stereo partly specified)	-17.18
CC(C)CC#Cc1ccc([C@H]2[C@@H](CO)N3C(=O)CN(C(=O)c4ccc5c(c4)OCO5)C[C@H]23)cc1	-12.81
Cc1cccc(S(=O)(=O)N2CCCCN3[C@H](CO)[C@H](c4ccc(C#C[C@H](C)O)cc4)[C@H]3C2)c1	-86.67
Cc1ccccc1S(=O)(=O)N1CC(=O)N2[C@H](C1)[C@@H](c1ccc(C#CCC3CCCC3)cc1)[C@@H]2CO	-12.62
CN(C)C(=O)c1cccc(-c2ccc3c(c2)[C@H]2[C@H](CCN2C(=O)c2ccccc2F)[C@H](CO)N3)c1	-59.82
COc1ccccc1CN1C[C@@H]2N[C@H](C1)[C@@H]2c1ccc(-c2cccnc2)cc1	2.267
O=C(c1cccc(F)c1)N1CC(=O)N2[C@@H](CO)[C@@H](c3ccc(C#Cc4ccc(F)cc4)cc3)[C@@H]2C1	-21.74
O=C(C[C@H]1CC[C@H]2[C@@H](COC[C@@H](O)CN2Cc2cc(F)ccc2F)O1)N1CCc2ccccc2C1	-46.12
N#C[C@H]1[C@@H](c2ccccc2C2=CCCCC2)[C@@H](CO)N1C(=O)NC1CCCC1	-19.55
O=S(=O)(c1ccccc1)N1CC2(C1)[C@H](c1ccccc1)[C@H](CO)N2CC1CCCC1	-65.11
C[C@@H]1CN([C@@H](C)CO)C(=O)c2ccccc2-c2ccccc2CO[C@@H]1CN(C)Cc1ccccc1C(F)(F)F	-34.8
CN1c2ccc(C3=CCCCC3)cc2[C@H]2[C@H](CCN2C(=O)C2CCCCC2)[C@H]1CO	-6.773

Data taken from PubChem BioAssay AID1224904, deposited by Broad Institute (2016).